Each structure is given as a SMILES string.

Format in all cases: cell-based
The subject of experiment [1] is GIST430/654/680 cells (KIT Δ560-576/V654A/N680K). Nature of the experiment: Viability assay, GIST-derived cell line GIST430/654/680. The conditions noted are these: Homo sapiens, GIST-430/654, 72 h.
Experiment [2] has as its system GIST226 cells (KIT-independent). The experiment is described as follows: Viability assay, GIST-derived cell line GIST226. The conditions noted are these: Homo sapiens, 72 h.
For experiment [3], the system named is Ba/F3 cells harboring KIT exon 11 primary mutants. The experiment is described as follows: Ba/F3 viability assay, KIT exon 11 primary mutants. The conditions noted are these: Mus musculus, BaF3.
Experiment [4] relates to Ba/F3 cells harboring KIT exon 11 Δ551-554. Nature of the experiment: Ba/F3 viability assay, KIT Δ551-554. To be noted: Mus musculus, BaF3.
Experiment [5] deals with GIST48B cells (KIT-independent). Nature of the experiment: Viability assay, GIST-derived cell line GIST48B. To be noted: Homo sapiens, 72 h.
Experiment [6] concerns GIST48/820 cells (KIT V560D / D820A). The experiment is described as follows: Viability assay, GIST-derived cell line GIST48/820. The conditions noted are these: Homo sapiens, GIST48, 72 h.
In experiment [7] the test system is GIST430/654 cells (KIT Δ560-576/ V654A). Nature of the experiment: Viability assay, GIST-derived cell line GIST430/654. To be noted: Homo sapiens, GIST-430/654, 72 h.
In experiment [8] the test system is GIST882 cells (KIT K642E). Nature of the experiment: Viability assay, GIST-derived cell line GIST882. The conditions noted are these: Homo sapiens, GIST882, 72 h.
Experiment [9] deals with Ba/F3 cells harboring KIT exon 9 insertion (502AY). Nature of the experiment: Ba/F3 viability assay, KIT exon 9 mutant. The conditions noted are these: Mus musculus, BaF3.
Experiment [10] deals with GIST430 cells (KIT Δ560-576). The experiment is described as follows: Viability assay, GIST-derived cell line GIST430. The conditions noted are these: Homo sapiens, GIST430, 72 h.

Broadly, the IC50 is the point on the concentration scale where inhibition reaches its midpoint. A lower IC50 goes with greater potency in that assay. Take `Cc1ccc(NC(=O)c2ccc(CN3CCN(C)CC3)cc2)cc1Nc1nccc(-c2cccnc2)n1` [Imatinib]: the 50% inhibitory concentration (IC50) is above 5000 nM in [1]; above 5000 nM in experiment [2]; at most 30 nM in [3]; 90 to 141 nM in experiment [4]; above 5000 nM in experiment [5]; 413 nM in experiment [6]. The IC50 was 1200 nM in experiment [7], 173 nM in experiment [8], above 130 nM in [9] and 61 nM in [10].

The values above are taken from article PMC4233175 (Clinical cancer research : an official journal of the …, 2014).
